According to US20040115837A1, “Methods of measuring the dissolution rate of an analyte in a non-aqueous liquid composition” (priority 2002, published 2004):

Assay: Recovery of CCFA from drug release media spiked with 1:1 Placebo:Miglyol
Description: The accuracy of the methods of the present invention can be determined by measuring the transfer of an analyte from a non-aqueous liquid composition to an aqueous medium where the non-aqueous liquid composition is spiked with a known amount of analyte. The spiked non-aqueous liquid composition is equilibrated with the aqueous drug release medium by shaking or stirring, after which the amount of analyte in the aqueous dissolution medium is determined. The concentration of analyte which transferred to the aqueous medium is then compared to the concentration which would result, in theory, if 100% of the analyte had transferred. (e.g. under the assumptions that no pipetting, weighing errors or losses occur, that 100% of the analyte has dissolved and that 100% of the analyte is detected). Methods of the invention are accurate within the range of from about 70% to about 100%, preferably from about 90% to about 100%.
The recovery of CCFA bulk drug dissolved in drug release media spiked with a 1:1 mixture of placebo lot SFH-10 and Miglyol 812 was assessed by spiking 15 microliters of 1:1 Placebo:Miglyol into 75 mL of standard solutions of CCFA. This spiking level (15 microliters in 75 mL) corresponded to 100 microliters of the Placebo:Miglyol mixture per 500 mL of aqueous medium. This represented a two fold increase in the relative concentration of non-aqueous phase to that specified in the General Dissolution Procedure, thus representing a “worst case” or conservative approach to assessing the potential for negative bias (i.e. incomplete recovery) in the assay. Recovery was determined at six concentrations of CCFA ranging from about 1 to 15 ppm of CCFA in the aqueous phase. For a 200 mg/mL CCFA product, these concentrations corresponded to about 10-150% dissolved. For example, the General Dissolution Procedure specifies measuring the drug release from 50 microliters (0.050 mL) of a 1:1 dilution of CCFA suspension in Miglyol 812 into 500 mL of drug release medium. If 10% of the drug dissolved, the resultant concentration of CCFA in the aqueous phase would be: [formula]
After spiking, the mixtures were equilibrated by shaking on a platform shaker at room two hours. The spiked samples were filtered and the concentration of the termined using HPLC procedure described in the General Dissolution e results are summarized in Table 3.

## CO/N=C(\C(=O)N[C@@H]1C(=O)N2C(C(=O)O)=C(CSC(=O)c3ccco3)CS[C@H]12)c1csc(N)n1 [CCFA, ceftiofur crystalline free acid]
No. 1, 0.001008 mg/ml added
  mg/ml measured: 0.001018 mg/mL and 0.001011 mg/mL
No. 2, 0.002520 mg/ml added
  mg/ml measured: 0.002539 mg/mL and 0.002529 mg/mL
No. 3, 0.005040 mg/ml added
  mg/ml measured: 0.005031 mg/mL
No. 4, 0.007540 mg/ml added
  mg/ml measured: 0.007556 mg/mL and 0.007557 mg/mL
No. 5, 0.010082 mg/ml added
  mg/ml measured: 0.01005 mg/mL and 0.01007 mg/mL
No. 6, 0.014982 mg/ml added
  mg/ml measured: 0.01497 mg/mL and 0.01495 mg/mL

Several values for one entry are separate records, joined by “and”; a condition that tells them apart may be missing. Identical values can stand only once.
